Reference: patent US20170319675A1

B1: CEP192-001 (peptide)
peptide: SLFGNSGILENV
B2: TACC3-001 (peptide)
peptide: KLVEFDFLGA
B3: CERC-001 (peptide)
peptide: KLSWDLIYL
B4: SERPINB3-001 (peptide)
peptide: KLFGEKTYL
B5: CCNA2-001 (peptide)
peptide: SLIDADPYL
B6: DPYSL4-001 (peptide)
peptide: NLLAEIHGV
B7: KIF26B-001 (peptide)
peptide: TVAEVIQSV
B8: CNOT1-001 (peptide)
peptide: YLAPFLRNV
B9: SLC34A2-001 (peptide)
peptide: VLLPVEVATHYL
B10: RGS4-001 (peptide)
peptide: KIYNEFISV
B11: VCAN-002 (peptide)
peptide: ALVDHTPYL
B12: COG4-001 (peptide)
peptide: SLVAVELEKV
B13: CDC6-001 (peptide)
peptide: ILQDRLNQV
B14: THY1-001 (peptide)
peptide: SLLAQNTSWLL
B15: RNF213-001 (peptide)
peptide: VLSVVEVTL
B16: RCN1-001 (peptide)
peptide: FQYDHEAFL
B17: FZD-001 (peptide)
peptide: VLAPLFVYL
B18: HMMR-001 (peptide)
peptide: KLLEYIEEI
B19: C11orf24-001 (peptide)
peptide: VVDKTLLLV
B20: JUNB-001 (peptide)
peptide: YLPHAPPFA
B21: ELANE-001 (peptide)
peptide: GLYPDAFAPV
B22: RCC1-001 (peptide)
peptide: TLISRLPAV
B23: IFT81-001 (peptide)
peptide: ALASVIKEL
B24: MAGEF1-001 (peptide)
peptide: ILFPDIIARA
B25: ACACA-001 (peptide)
peptide: FLIPIYHQV
B26: PLEKHA8-001 (peptide)
peptide: AILDTLYEV
B27: EEF2-002 (peptide)
peptide: GLAEDIDKGEV
B28: HSP-002 (peptide)
peptide: SILTIEDGIFEV
B29: ATP-001 (peptide)
peptide: SLHFLILYV
B30: ORMDL1-002 (peptide)
peptide: TLTNIIHNL
B31: NET1-001 (peptide)
peptide: ILVSWLPRL
B32: NCAPD2-001 (peptide)
peptide: SLAGDVALQQL
B33: VPS13B-001 (peptide)
peptide: SLWGGDVVL
B34: MDN1-001 (peptide)
peptide: ALANQKLYSV
B35: C12orf44-001 (peptide)
peptide: AMLAVLHTV
B36: ITGA11-001 (peptide)
peptide: FLHHLEIEL
B37: DIO2-001 (peptide)
peptide: ALYDSVILL
B38: ANKH-001 (peptide)
peptide: SISDVIAQV
B39: P2RY6-001 (peptide)
peptide: TVIGFLLPFA
B40: CEP250-002 (peptide)
peptide: ALWEKNTHL
B41: ANKS1A-001 (peptide)
peptide: ALYGRLEVV
B42: NCBP1-001 (peptide)
peptide: AMFENFVSV
B43: NEFH-001 (peptide)
peptide: HLLEDIAHV
B44: OLFM1-001 (peptide)
peptide: ILMGTELTQV
B45: PI4KA-001 (peptide)
peptide: AMATESILHFA
B46: SLC3A2-001 (peptide)
peptide: SLLESNKDLLL
B47: SLI-001 (peptide)
peptide: SLYDNQITTV
B48: TLX3-001 (peptide)
peptide: SLAPAGVIRV
B49: FAP-003 (peptide)
peptide: YVYQNNIYL
B50: AURKB-001 (peptide)
peptide: RVLPPSALQSV
B51: DST-001 (peptide)
peptide: NLIEKSIYL
B52: MXRA5-001 (peptide)
peptide: TLSSIKVEV
B53: GFPT2-001 (peptide)
peptide: AIDGNNHEV
B54: ABCA13-001 (peptide)
peptide: ILFEINPKL
B55: DST-002 (peptide)
peptide: KLDETNNTL
B56: MXRA5-002 (peptide)
peptide: GLTDNIHLV
B57: SAMSN1-001 (peptide)
peptide: RLLAAENFL
B58: HNRNPH-001 (peptide)
peptide: SMSGYDQVL
B59: WNT5A-001 (peptide)
peptide: AMSSKFFLV
B60: IL8-001 (peptide)
peptide: KLAVALLAA
B61: STAT2-001 (peptide)
peptide: SLLPVDIRQYL
B62: ADAM8-001 (peptide)
peptide: KLLTEVHAA
B63: VCAN-001 (peptide)
peptide: TLYPHTSQV
B64: SMYD3-001 (peptide)
peptide: SLIEDLILL
B65: ABCA13-002 (peptide)
peptide: ALDENLHQL
B66: BNC1-001 (peptide)
peptide: VLFPNLKTV
B67: CDK4-001 (peptide)
peptide: TLWYRAPEV
B68: DROSHA-001 (peptide)
peptide: AVVEFLTSV
B69: GALNT2-001 (peptide)
peptide: ALLRTVVSV
B70: SNRNP20-001 (peptide)
peptide: GLIEIISNA
B71: AKR-001 (peptide)
peptide: YLIHFPVSV
B72: LAMC2-001 (peptide)
peptide: RLLDSVSRL
B73: RAD54B-001 (peptide)
peptide: SLYKGLLSV
B74: COL12A1-002 (peptide)
peptide: FLVDGSWSV
B75: CSE1-001 (peptide)
peptide: ALFPHLLQPV
B76: SEC61G-001 (peptide)
peptide: AIMGFIGFFV

Target: HLA-A*0201 (human)
Experiment: UV-ligand exchange; anti-b2m ELISA

Binder	binding
B1	binds
B2	binds
B3	binds
B4	binds
B5	binds
B6	binds
B7	binds
B8	binds
B9	binds
B10	binds
B11	binds
B12	binds
B13	binds
B14	binds
B15	binds
B16	binds
B17	binds
B18	binds
B19	binds
B20	binds
B21	binds
B22	binds
B23	binds
B24	binds
B25	binds
B26	binds

Binder	binding
B27	binds
B28	binds
B29	binds
B30	binds
B31	binds
B32	binds
B33	binds
B34	binds
B35	binds
B36	binds
B37	binds
B38	binds
B39	binds
B40	binds
B41	binds
B42	binds
B43	binds
B44	binds
B45	binds
B46	binds
B47	binds
B48	binds
B49	binds
B50	binds
B51	binds
B52	binds

Binder	binding
B53	binds
B54	binds
B55	binds
B56	binds
B57	binds
B58	binds
B59	binds
B60	binds
B61	binds
B62	binds
B63	binds
B64	binds
B65	binds
B66	binds
B67	binds
B68	binds
B69	binds
B70	binds
B71	binds
B72	binds
B73	binds
B74	binds
B75	binds
B76	binds

No constants are given. Whether binding was seen depends on the method and setting. A result given as binding can be weak or reduced; the word gives no strength. Tags and fused reporters may be left off the sequences shown.
